PubChem BioAssay AID1671195, Yale University, 2021

Assay: 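Regulators of LDL receptor activity judged by labelled LDL uptake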 (primary screen)
System: human Huh7 hepatoma cells
Reagents: siRNA pool against human genes, 18 nM
Time to read-out: about 2 to 2.5 days of knockdown, then 8 h LDL uptake
Challenge: DiI-labelled LDL at 30 µg/ml for 8 h, in lipoprotein-deficient serum medium
Measurement: 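Per-cell DiI-LDL intensity by automated imaging; well means scaled to the plate median and given as a robust z-score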
Reading the numbers: robust z-score: higher = more LDL uptake after knockdown
Call rule: 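a gene counts as active if at least two replicate z-scores exceed ±2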
The deposit covers about 22,000 reagents; this is a part drawn at random. Over the whole deposit, about 1,510 (6.9%) are marked active. 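Active includes knockdowns raising or lowering LDL uptake; positive z-scores mean more uptake, negative mean less.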

Silencing of AFG2A (AAA ATPase AFG2A) came out at: robust z-score, replicate 1 = -1.24; robust z-score, replicate 2 = -0.48; robust z-score, replicate 3 = -0.797; inactive.
With knock-down of MED20 (mediator complex subunit 20), the record shows robust z-score, replicate 1 = 1.26; robust z-score, replicate 2 = 0.885; robust z-score, replicate 3 = 2.22; inactive.
Depletion of ZXDC (ZXD family zinc finger C) resulted in: robust z-score, replicate 1 = -0.399; robust z-score, replicate 2 = -0.113; robust z-score, replicate 3 = -0.0262; inactive.
After knock-down of CELF2-AS2 (CELF2 antisense RNA 2), the record shows robust z-score, replicate 1 = -1.31; robust z-score, replicate 2 = -0.927; robust z-score, replicate 3 = -0.947; inactive.
Knock-down of CPAMD8 (C3 and PZP like alpha-2-macroglobulin domain containing 8) gave: robust z-score, replicate 1 = -0.116; robust z-score, replicate 2 = -0.242; robust z-score, replicate 3 = 0.295; inactive.
With knock-down of MET (MET proto-oncogene, receptor tyrosine kinase), the screen gave robust z-score, replicate 1 = 0.294; robust z-score, replicate 2 = -0.796; robust z-score, replicate 3 = -1.2; inactive.
YJU2 (YJU2 splicing factor homolog) scored robust z-score, replicate 1 = -1.06; robust z-score, replicate 2 = 0.0298; robust z-score, replicate 3 = -1.04; inactive.
For NR0B2 (nuclear receptor subfamily 0 group B member 2) the deposit lists robust z-score, replicate 1 = -0.231; robust z-score, replicate 2 = -0.0342; robust z-score, replicate 3 = -0.437; inactive.
For NSMF, the values are robust z-score, replicate 1 = -1.15; robust z-score, replicate 2 = -0.559; robust z-score, replicate 3 = -0.706; inactive.
RIMOC1 (RAB7A interacting MON1-CCZ1 complex subunit 1) scored robust z-score, replicate 1 = -0.195; robust z-score, replicate 2 = -0.666; robust z-score, replicate 3 = -0.443; inactive.
For NCK1 (NCK adaptor protein 1), the values are robust z-score, replicate 1 = -0.375; robust z-score, replicate 2 = -0.789; robust z-score, replicate 3 = -0.825; inactive.
Silencing of C3orf85 (chromosome 3 open reading frame 85) gave: robust z-score, replicate 1 = 0.584; robust z-score, replicate 2 = 0.146; robust z-score, replicate 3 = 0.593; inactive.
For LOC389782 (retired record), the entry reads robust z-score, replicate 1 = -0.282; robust z-score, replicate 2 = -0.478; robust z-score, replicate 3 = -0.965; inactive.
Against PDIK1L (PDLIM1 interacting kinase 1 like), the values are robust z-score, replicate 1 = 1.87; robust z-score, replicate 2 = 0.399; robust z-score, replicate 3 = 0.632; inactive.
TMCC3 (transmembrane and coiled-coil domain family 3) gave robust z-score, replicate 1 = -1.94; robust z-score, replicate 2 = -1.27; robust z-score, replicate 3 = -1.21; inactive.
Depletion of USHBP1 (USH1 protein network component harmonin binding protein 1) came out at: robust z-score, replicate 1 = 2.99; robust z-score, replicate 2 = 0.955; robust z-score, replicate 3 = 0.6; inactive.

2 entries already listed, arranged by “robust z-score, replicate 3”, high to low.
NR0B2 (nuclear receptor subfamily 0 group B member 2) — robust z-score, replicate 1 = -0.231; robust z-score, replicate 2 = -0.0342; robust z-score, replicate 3 = -0.437; call = inactive
NSMF — robust z-score, replicate 1 = -1.15; robust z-score, replicate 2 = -0.559; robust z-score, replicate 3 = -0.706; call = inactive
